Test results taken from PubChem BioAssay AID1258 (University of Pittsburgh Molecular Library Screening Center, 2008).
Among all 1,100 compounds or so, about 150 (14%) were called active. Another 1% or so got no clear call; they are omitted.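 Rule for the calls: active = inhibition above about 50% in both repeat tests (limit read from the data); inconclusive = one repeat under the set limit, the other over it; inactive = both repeats under the set limit.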 This is a selection; strong and weak results do not stand in their true shares.

Assay: Leishmania major promastigote growth inhibition, confirmation, 1 µM repeat of primary hits (AID 1258)
Details: L. major promastigote growth, resazurin fluorescence, 48 h; at 1 µM; stronger effect = higher value
Procedure, shortened: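 system = Leishmania major promastigote parasites | quantity = 5,000 promastigotes per well | buffer or medium = medium 199 plus 10% heat-inactivated FBS | compound dosing = 1 µM single concentration | timing = 44 h drug plus 4 h dye, 28 °C | read-out = promastigote viability as inhibition relative to DMSO MAX/MIN controls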

Question: Which inhibition does the source give for `Cc1nc2ccccn2c1P(=S)(N1CCCCC1)N1CCCCC1` here?
Answer: Its inhibition is inactive: -20.1%.

Question: Which inhibition does the source give for `C[N+]12CN3CN(CN(C3)C1)C2` here?
Answer: Its inhibition is inactive: -12.4%.
